{"source": "patent US8263555B2", "about": "(Alcon Research, Ltd., priority 2007, dated 2012)", "key": {"[1]": {"test_system": "h-CM cells", "test": "Production and release of endogenous prostaglandins from h-CM cells", "type": "cell-based, human", "settings": "BK 1 μM, relative to baseline and to fluprostenol", "experimental": "A functional assay to discover BK agonists may involve the measurement of prostaglandin E2 (PGE2) production (Wiernas et al. Brit. J. Pharmacol. 123: 1127-1137, 1998), for instance, in cells isolated from human or animal ocular or non-ocular tissues, or cells expressing recombinant (preferably human) BK receptors. Cells expressing BK receptors are seeded in 48-wells culture plates and allowed to reach confluence. After this time the cells are rinsed twice with 0.5 mL of phosphate buffered saline and incubated with the test agent made up in 0.5 mL Dulbeco's modified Eagle's medium (DMEM)/F-12 for 1 h at 37° C. […]\nAfter this incubation, all tubes are placed in an ice-bath and 1 ml cold precipitating reagent supplied in the kit is added to the tubes, the content mixed and incubated for 25 min at 4° C. […] The supernatants of all tubes are decanted as specified in the kit instructions and the RIA samples analyzed on a gamma-counter. The levels of PGE2 generated by the test agent are then quantified in comparison with the PGE2-standard curve. Dose-response data for the test agent are constructed and the potency and intrinsic activity determined as described above for other assays. […]"}, "[2]": {"test_system": "rabbit IOP", "test": "Acute IOP response in rabbit eyes, intravitreal administration", "type": "in vivo", "settings": "50 μg, relative to vehicle alone", "experimental": "IOP is determined with an applanation pneumatonometer after light corneal anesthesia with 0.1% proparacaine. After baseline IOP measurements are taken, one eye of each of 7-10 (or both eyes of 5) rabbits per compound dose is topically dosed with compound. Either the contralateral eye is dosed with vehicle or a separate group of rabbits is used for vehicle control. Subsequent IOP measurements are taken at 0.5, 1, 2, 3, and 4 hours. In cases where the compound has poor ocular bioavailability, the compound may need to be administered intracamerally or intravitreally in order to observe the IOP-lowering efficacy.\nConversely, non-peptidic BK antagonists dosed topical ocularly in the ocular hypertensive monkey eyes were ineffective at modulating IOP (see below Example 4)."}}, "note": "At least one compound was matched to its structure with a doubt left.", "data": [{"substance": "H-RPPGFSPFR-OH [BK]", "values": [{"measurement": "production of prostaglandins", "setting": "[1]", "value": "enhanced production of prostaglandins"}, {"measurement": "effect on rabbit IOP", "setting": "[2]", "value": "profoundly lowered rabbit IOP"}]}]}
